Patent US10973831B2, “Fluoropiperidine compounds as pure 5-HT 6 receptor antagonists” (SUVEN LIFE SCIENCES LIMITED, priority 2017, dated 2021)

Test system: extracellular levels of acetylcholine in ventral hippocampus
Test: Acetylcholine modulation in ventral hippocampus (microdialysis)
Type: in vivo, male Wistar rats
Details: donepezil 1 mg/kg, s.c. alone
Source text: Four groups of male Wistar rats (240-300 g body weight) were stereotaxically implanted with a microdialysis guide cannula in ventral hippocampus (AP: −5.2 mm, ML: +5.0 mm, DV: −3.8 mm) under isoflurane anesthesia. Co-ordinates were taken according to atlas for the rat brain (Paxinos and Watson 2004) with reference points taken from bregma and vertical from the skull. […] After surgical recovery of 4-5 days, male Wistar rats were connected to dual quartz lined two-channel liquid swivel (Instech, UK) on a counter balance lever arm, which allowed unrestricted movements of the animal. […] On the day of study, probe was perfused with artificial cerebrospinal fluid (aCSF; NaCl 147 mM, KC13 mM, MgCl2 1 mM, CaCl2. 2H2O 1.3 mM, NaH2PO4.2H2O 0.2 mM and Na2HPO4.7H2O 1 mM, pH 7.2) at a flow rate of 1.5 μL/min and a stabilization period of 2 h was maintained. […] For two groups of the male Wistar rats, donepezil (1 mg/kg, s.c.) was administered 30 min after administration of example 1 and for another group of rats donepezil (1 mg/kg, s.c.)+memantine (1 mg/kg, s.c.) combination administered 30 min after administration of example 1. Dialysate samples were collected for an additional period of 4 h post treatment of example 1. Dialysates were stored below −50° C. prior to analysis. Acetylcholine in dialysate was quantified using LC-MS/MS method in the calibration range of 0.099 nmol/L-70.171 nmol/L. […]

## COc1cc2c(cc1OC)C(=O)C(CC1CCN(Cc3ccccc3)CC1)C2 (stereo not shown) [donepezil, reference compound]
  hippocampal acetylcholine levels, maximum, % of basal levels: 888±85%
